Measurements taken from PMC9478928.

The chains behind the UniProt entries cited, without tags or fusion partners.
UniProt P35189: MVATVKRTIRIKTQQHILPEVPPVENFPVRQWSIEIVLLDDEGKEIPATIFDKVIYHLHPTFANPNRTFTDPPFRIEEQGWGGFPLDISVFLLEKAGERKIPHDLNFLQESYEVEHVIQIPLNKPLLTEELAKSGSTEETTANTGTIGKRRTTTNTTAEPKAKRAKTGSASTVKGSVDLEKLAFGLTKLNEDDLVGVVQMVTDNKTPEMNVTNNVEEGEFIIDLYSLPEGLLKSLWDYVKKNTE

What was measured:
[1] = biological target: T1, Taf2, full-length, C-terminally 3xFlag-tagged (S. cerevisiae) (UniProt P23255); test: affinity purification with mass spectrometry; Taf2-Flag and Taf2ΔC1261-Flag from yeast extract on anti-FLAG M2 agarose; benzonase 50 U/ml; 250 mM KCl; washed six times; triplicates against a nontagged strain
T1 sequence: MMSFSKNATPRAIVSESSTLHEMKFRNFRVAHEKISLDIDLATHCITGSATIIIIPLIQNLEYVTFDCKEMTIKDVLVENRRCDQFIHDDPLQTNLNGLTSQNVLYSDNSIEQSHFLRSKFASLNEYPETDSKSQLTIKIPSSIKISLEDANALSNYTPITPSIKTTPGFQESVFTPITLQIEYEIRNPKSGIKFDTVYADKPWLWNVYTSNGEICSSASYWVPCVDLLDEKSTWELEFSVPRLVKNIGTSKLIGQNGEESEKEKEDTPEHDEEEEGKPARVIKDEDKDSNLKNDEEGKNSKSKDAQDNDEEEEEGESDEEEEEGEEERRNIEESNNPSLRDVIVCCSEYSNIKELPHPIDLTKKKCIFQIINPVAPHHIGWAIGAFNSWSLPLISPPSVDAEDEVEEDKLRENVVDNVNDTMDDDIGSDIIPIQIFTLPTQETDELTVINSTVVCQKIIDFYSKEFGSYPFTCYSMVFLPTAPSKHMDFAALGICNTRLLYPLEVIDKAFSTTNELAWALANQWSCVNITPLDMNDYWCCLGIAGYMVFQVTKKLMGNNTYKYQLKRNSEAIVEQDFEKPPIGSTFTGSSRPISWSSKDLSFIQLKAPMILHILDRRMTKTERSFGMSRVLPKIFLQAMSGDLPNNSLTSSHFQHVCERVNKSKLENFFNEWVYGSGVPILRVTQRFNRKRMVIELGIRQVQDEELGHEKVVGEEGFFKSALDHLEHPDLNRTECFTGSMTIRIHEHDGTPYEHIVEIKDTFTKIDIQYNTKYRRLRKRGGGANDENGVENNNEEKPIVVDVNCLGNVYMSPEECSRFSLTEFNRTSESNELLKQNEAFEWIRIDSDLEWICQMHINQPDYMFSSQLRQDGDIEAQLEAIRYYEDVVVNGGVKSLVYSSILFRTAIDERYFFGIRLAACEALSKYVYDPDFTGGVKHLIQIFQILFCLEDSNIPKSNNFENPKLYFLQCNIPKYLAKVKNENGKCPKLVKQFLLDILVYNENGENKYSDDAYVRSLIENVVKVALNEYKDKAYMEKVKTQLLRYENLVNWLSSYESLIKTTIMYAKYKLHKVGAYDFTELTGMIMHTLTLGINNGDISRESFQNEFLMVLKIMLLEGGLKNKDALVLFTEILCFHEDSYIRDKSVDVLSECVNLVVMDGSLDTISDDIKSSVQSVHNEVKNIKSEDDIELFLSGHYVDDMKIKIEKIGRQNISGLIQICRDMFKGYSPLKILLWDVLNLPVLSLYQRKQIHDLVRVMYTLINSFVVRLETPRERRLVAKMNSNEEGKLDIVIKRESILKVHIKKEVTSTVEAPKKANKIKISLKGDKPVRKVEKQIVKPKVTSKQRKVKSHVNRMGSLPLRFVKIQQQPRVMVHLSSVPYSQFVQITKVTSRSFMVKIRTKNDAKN

[2] = biological target: T2, Taf2ΔC1261, C-terminally 3xFlag-tagged (amino acids 1-1260) (S. cerevisiae) (UniProt P23255); test: as above
T2 sequence: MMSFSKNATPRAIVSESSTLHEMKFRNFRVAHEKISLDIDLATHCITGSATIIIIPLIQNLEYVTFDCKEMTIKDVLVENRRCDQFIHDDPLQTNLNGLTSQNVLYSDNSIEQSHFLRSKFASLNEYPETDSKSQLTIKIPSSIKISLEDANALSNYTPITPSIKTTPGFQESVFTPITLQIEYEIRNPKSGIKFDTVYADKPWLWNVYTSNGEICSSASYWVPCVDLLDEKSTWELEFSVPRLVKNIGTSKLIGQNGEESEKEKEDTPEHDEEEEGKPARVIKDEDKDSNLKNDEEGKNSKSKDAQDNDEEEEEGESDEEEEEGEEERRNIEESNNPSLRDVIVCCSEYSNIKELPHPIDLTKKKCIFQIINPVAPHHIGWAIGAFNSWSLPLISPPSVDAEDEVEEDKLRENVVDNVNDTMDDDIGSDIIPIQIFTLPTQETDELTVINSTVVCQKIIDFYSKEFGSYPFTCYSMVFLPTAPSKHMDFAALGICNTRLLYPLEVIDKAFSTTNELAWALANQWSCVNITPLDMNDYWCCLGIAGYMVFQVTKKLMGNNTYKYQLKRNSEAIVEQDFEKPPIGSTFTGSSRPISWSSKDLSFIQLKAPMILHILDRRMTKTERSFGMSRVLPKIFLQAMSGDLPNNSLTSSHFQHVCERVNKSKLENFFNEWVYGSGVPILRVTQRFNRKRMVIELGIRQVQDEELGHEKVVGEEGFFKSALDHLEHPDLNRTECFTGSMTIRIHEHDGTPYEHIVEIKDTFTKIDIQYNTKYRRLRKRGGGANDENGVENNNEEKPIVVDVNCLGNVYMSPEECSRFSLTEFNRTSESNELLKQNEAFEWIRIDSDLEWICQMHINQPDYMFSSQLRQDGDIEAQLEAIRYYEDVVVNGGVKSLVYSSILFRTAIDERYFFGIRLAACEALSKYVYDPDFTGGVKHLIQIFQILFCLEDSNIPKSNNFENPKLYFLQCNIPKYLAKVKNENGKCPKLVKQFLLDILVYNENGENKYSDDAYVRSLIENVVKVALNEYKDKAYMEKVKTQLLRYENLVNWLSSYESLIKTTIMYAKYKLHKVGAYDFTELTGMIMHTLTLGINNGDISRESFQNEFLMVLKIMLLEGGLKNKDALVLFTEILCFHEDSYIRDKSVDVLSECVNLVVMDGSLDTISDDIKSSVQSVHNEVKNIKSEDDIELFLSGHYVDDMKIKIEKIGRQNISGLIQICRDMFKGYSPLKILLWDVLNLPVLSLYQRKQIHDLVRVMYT

Substance: Taf14 (endogenous, untagged) (from UniProt P35189 1-244)
- binding [1]: binds
- binding [2]: no binding

Results are given in words; binding and its absence hold for the method and conditions named. In cells and extracts the contact can be indirect. A yes stands for co-enrichment or nearness to the bait. Other partners may have been found. For some assays here: No binding means not detected with the bait. Where a sequence is shown, tags or fusion partners need not be part of it.
